Common to all, as to assay: log2 fold change, soluble protein after heating vs DMSO (PISA); higher = thermal stabilisation; K562 cells, 10 uM, 30 min; active = over 0.2 and 3.5 SD of the protein, either way, in both replicates (recomputed)
Compound in assay [1]: C1=CC2=NC=CN=C2C=C1/C=C/3\C(=O)NC(=O)S3
The gist of the method:
(§1)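 For each measurement, 10 μM compound was applied for 30 min to K562 cells at 2×10^6 cells/mL. Aliquots were heated for 3 min across 48°C-58°C, pooled, and extracted in PBS with 0.5% NP-40 at 4°C; the supernatant after 21,000xg for 90 min was soluble protein. This was quantified by TMTpro 16plex LC-MS/MS with channel sums equalised, and thermal stability was reported relative to control samples from duplicates, on a log2 fold-change scale.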

By UniProt entry, the sequences of proteins in these tests, tags left out. Where a name states a change or a piece, a line headed by the entry shows the natural chain unless it says otherwise.
UniProt Q8IVP5: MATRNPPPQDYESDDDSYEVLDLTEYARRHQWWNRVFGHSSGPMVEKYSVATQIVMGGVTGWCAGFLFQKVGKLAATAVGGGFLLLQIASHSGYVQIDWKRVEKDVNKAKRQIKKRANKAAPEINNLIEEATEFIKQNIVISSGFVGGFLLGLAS
UniProt Q92837: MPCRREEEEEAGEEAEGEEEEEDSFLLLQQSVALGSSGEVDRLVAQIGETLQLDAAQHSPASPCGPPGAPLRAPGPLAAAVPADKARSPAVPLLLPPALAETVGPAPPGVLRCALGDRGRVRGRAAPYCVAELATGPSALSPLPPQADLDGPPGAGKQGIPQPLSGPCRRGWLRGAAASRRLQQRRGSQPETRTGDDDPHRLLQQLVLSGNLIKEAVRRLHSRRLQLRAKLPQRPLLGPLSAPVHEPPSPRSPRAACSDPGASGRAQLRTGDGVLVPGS
UniProt Q9UM11, whole entry, looked up: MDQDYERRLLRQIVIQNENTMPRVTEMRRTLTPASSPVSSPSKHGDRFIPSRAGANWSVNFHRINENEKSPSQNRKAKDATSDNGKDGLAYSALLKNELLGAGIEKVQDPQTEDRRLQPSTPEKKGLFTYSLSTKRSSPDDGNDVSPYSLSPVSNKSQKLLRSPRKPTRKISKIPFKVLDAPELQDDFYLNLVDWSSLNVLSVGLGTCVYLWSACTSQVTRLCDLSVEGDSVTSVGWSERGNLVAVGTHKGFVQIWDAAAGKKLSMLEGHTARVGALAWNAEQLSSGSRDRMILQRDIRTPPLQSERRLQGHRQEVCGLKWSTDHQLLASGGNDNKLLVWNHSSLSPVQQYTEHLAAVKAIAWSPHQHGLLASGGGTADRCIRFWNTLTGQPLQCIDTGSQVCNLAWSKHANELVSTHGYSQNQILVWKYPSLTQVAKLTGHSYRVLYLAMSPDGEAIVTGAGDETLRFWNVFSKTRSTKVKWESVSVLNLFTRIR
UniProt Q3B7J2: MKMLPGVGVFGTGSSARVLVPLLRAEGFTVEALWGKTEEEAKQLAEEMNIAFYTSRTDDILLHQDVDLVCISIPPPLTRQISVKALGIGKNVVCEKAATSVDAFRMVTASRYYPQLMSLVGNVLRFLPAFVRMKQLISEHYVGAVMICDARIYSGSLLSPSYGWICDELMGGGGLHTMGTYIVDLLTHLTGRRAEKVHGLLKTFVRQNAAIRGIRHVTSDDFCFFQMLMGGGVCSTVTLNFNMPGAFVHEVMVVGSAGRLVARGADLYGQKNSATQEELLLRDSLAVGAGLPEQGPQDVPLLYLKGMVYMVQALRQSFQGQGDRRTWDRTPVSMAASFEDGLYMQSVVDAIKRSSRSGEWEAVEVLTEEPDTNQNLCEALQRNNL
UniProt Q99988: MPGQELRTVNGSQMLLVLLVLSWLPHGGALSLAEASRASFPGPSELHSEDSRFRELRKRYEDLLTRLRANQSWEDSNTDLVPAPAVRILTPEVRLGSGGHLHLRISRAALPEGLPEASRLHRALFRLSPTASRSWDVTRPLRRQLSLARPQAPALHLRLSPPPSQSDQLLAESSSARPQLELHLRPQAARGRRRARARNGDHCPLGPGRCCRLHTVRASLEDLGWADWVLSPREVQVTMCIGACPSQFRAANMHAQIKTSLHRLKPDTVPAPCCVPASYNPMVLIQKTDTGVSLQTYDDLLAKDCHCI
UniProt Q14697: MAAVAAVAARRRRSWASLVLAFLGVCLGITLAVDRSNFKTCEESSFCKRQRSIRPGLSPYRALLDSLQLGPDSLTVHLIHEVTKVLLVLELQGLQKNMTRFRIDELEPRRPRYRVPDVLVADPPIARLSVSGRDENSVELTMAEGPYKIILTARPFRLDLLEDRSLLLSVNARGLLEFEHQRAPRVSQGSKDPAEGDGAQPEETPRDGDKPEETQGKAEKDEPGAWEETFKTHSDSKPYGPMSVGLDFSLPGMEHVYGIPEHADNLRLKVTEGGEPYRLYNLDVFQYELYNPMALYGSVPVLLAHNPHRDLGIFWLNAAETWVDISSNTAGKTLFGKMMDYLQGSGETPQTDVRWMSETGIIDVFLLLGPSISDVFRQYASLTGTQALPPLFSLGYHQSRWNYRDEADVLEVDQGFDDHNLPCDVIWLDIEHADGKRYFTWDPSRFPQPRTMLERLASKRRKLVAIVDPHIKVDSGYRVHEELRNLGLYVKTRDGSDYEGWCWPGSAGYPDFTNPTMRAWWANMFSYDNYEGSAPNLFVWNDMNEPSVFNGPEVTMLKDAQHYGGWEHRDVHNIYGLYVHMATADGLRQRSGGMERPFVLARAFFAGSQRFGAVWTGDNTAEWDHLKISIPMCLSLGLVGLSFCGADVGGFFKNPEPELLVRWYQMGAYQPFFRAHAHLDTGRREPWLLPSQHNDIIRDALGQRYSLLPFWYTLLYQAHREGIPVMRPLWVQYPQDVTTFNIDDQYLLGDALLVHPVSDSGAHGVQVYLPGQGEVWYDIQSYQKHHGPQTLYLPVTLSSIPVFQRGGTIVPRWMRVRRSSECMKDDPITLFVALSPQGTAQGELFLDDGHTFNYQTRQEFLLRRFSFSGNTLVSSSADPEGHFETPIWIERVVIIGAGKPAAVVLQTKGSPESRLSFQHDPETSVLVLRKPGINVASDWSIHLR
UniProt P19526, whole entry, looked up: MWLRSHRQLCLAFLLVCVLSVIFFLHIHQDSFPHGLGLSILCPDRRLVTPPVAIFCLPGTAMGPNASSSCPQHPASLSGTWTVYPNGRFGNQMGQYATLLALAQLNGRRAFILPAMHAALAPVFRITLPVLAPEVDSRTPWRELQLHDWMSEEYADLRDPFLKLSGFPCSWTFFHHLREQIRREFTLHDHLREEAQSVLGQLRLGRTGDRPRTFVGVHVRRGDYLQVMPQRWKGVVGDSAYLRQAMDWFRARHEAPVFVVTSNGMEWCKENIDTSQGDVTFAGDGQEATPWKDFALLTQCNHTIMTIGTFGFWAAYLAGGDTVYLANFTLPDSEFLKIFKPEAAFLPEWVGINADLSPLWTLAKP
UniProt Q8WTR4: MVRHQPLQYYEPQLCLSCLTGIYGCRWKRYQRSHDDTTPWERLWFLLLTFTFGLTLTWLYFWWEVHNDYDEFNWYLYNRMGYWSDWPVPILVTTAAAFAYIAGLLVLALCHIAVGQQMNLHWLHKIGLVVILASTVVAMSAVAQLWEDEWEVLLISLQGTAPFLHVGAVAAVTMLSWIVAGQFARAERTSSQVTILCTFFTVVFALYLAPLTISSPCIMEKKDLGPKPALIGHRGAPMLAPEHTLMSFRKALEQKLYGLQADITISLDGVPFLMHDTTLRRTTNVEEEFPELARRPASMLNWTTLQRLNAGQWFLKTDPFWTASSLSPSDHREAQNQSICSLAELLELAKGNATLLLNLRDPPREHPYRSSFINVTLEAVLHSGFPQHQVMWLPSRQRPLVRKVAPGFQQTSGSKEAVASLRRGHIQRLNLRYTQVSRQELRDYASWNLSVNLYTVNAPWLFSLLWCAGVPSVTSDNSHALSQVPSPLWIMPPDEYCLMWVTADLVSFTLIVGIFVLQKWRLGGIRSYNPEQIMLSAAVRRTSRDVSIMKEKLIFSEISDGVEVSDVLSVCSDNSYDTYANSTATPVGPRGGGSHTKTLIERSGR
UniProt Q9BZ67: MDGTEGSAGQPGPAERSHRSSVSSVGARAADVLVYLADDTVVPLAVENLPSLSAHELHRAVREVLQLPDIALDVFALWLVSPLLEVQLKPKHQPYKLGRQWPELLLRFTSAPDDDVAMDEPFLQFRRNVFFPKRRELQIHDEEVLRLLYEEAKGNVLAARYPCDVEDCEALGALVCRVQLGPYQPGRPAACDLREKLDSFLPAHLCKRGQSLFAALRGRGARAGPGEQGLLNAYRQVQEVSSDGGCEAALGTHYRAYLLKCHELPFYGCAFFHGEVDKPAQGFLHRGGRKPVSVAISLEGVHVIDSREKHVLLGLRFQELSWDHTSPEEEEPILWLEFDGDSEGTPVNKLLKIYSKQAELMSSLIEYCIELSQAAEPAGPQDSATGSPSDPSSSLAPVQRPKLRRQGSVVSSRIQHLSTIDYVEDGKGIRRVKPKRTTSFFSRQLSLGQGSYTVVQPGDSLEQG
UniProt A2VDF0: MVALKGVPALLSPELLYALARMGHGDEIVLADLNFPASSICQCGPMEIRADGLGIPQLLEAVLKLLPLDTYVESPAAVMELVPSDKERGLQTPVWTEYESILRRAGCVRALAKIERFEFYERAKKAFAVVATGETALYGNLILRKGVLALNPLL
UniProt Q8TET4: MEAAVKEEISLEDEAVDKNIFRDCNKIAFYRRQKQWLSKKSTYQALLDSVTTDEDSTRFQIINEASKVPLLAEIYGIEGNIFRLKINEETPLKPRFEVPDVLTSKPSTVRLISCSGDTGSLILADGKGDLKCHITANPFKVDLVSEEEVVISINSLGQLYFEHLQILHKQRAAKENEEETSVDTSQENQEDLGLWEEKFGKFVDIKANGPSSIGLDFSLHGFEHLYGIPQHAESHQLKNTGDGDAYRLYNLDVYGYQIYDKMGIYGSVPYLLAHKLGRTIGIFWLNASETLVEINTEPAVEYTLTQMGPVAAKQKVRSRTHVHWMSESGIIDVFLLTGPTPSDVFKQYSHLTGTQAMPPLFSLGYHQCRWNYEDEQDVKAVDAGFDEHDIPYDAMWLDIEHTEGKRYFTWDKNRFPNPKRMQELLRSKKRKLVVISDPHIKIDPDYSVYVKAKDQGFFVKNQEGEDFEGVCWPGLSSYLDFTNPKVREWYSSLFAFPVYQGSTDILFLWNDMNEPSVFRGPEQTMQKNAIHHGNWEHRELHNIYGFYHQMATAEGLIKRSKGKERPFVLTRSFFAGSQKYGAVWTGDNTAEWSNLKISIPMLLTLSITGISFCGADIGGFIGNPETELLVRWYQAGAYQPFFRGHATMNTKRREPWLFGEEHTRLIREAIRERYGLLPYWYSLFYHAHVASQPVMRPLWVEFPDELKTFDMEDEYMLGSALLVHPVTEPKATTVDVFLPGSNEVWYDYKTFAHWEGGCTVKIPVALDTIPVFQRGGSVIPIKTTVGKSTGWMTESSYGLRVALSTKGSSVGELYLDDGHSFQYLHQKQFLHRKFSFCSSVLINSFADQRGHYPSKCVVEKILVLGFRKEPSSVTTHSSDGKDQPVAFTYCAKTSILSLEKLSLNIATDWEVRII
UniProt Q6P4F1: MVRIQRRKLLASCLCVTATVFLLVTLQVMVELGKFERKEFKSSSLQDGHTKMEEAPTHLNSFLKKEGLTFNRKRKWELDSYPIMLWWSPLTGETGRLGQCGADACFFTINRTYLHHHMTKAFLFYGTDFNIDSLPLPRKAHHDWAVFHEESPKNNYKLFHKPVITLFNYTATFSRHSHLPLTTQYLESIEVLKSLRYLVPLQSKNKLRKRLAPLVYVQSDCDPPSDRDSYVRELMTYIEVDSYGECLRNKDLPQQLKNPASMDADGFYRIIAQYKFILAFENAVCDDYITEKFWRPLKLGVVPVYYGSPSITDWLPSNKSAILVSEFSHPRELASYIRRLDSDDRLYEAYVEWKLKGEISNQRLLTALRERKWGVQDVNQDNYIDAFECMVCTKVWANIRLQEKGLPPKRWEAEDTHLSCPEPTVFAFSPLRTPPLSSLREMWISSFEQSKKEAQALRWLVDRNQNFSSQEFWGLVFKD
UniProt Q9UET6: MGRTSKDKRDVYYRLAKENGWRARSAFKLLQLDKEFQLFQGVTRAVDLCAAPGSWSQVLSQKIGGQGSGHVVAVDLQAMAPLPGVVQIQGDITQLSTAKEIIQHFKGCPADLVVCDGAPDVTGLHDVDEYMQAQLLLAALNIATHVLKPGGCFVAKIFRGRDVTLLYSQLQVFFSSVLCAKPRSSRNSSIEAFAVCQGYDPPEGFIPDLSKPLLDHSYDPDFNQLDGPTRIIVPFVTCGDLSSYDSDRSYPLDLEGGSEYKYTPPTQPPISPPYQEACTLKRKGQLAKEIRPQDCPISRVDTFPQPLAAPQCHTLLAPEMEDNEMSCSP
UniProt Q96QD9: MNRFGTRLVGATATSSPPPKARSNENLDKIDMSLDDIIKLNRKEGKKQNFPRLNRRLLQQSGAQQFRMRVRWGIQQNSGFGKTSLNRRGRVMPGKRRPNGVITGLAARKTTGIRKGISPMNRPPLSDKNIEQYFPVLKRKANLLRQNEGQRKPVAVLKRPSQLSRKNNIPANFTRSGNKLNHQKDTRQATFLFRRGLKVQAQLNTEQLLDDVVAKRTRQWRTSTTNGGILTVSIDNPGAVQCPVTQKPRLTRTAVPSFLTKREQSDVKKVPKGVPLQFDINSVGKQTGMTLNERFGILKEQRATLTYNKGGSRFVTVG
UniProt Q96DB9: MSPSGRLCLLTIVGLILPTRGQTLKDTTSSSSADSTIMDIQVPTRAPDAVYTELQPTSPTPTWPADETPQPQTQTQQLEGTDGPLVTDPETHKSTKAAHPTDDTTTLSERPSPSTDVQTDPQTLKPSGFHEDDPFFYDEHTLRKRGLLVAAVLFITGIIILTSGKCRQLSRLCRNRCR

Compound in assay [2]: C=CC(=O)N1CCC[C@@H](n2nc(-c3ccc(Oc4ccccc4)cc3)c3c(N)ncnc32)C1 [ibrutinib]
Summed up:
as §1

Compound in assay [3]: C1=CC=C(C=C1)C2=NC(=C(N2)C3=CC=NC=C3)C4=CC(=C(C=C4)Cl)O
Summed up:
as §1

Compound in assay [4]: CC(C)(C)Cn1c(N)nc2ccc(-c3[nH]c(C(C)(C)C)nc3-c3ccc(F)cc3)nc21 [ralimetinib]
The gist of the method:
as §1

Compound in assay [5]: CC(C)C[C@@H](C=O)NC(=O)[C@H](CC(C)C)NC(=O)[C@H](CC(C)C)NC(=O)OCc1ccccc1
Summed up:
as §1

Compound in assay [6]: CC1=C(C(CC(=O)N1)C2=CC=C(C=C2)C(F)(F)F)C(=O)NC3=C(C=C4C(=C3)C=NN4)F
The gist of the method: as §1

Compound in assay [7]: C1COCCN1CCN2C3=CC=CC=C3N=C2NC(=O)C4=CC(=CC=C4)[N+](=O)[O-] [IRAK-1-4 Inhibitor I]
The gist of the method: as §1

Compound in assay [8]: CC(C)N(C[C@H]1O[C@@H](n2cnc3c(N)ncnc32)[C@H](O)[C@@H]1O)[C@H]1C[C@@H](CCc2nc3cc(C(C)(C)C)ccc3[nH]2)C1 [pinometostat]
Summed up:
as §1

Compound in assay [9]: C1=CC(=C(C=C1Cl)C2=NC3=NC=CN=C3C(=N2)NC4=CC=NC=C4)F
Summed up: as §1

Compound in assay [10]: CC(C)(O)CC(=O)NCCn1ccc2ncnc(Nc3ccc(Oc4cccc(C(F)(F)F)c4)c(Cl)c3)c21
The gist of the method: as §1

Compound in assay [11]: C/C(=N\NC(=O)C1=CC(=CC=C1)S(=O)(=O)N2CCOCC2)/C3=C(C=CC(=C3)Cl)O
The gist of the method: as §1

Compound in assay [12]: C1=CC2=C(C=CC(=C2)/C=C\3/C(=O)NC(=NCC4=CC=CS4)S3)N=C1
The gist of the method:
as §1

Compound in assay [13]: C1=CC=C2C(=C1)C3=NNC4=CC=CC(=C43)C2=O
Summed up:
as §1

Compound in assay [14]: C1CCN(C1)C(=O)NC2=CC=CC(=C2)NC3=NC=C(C(=N3)NCCC4=CN=CN4)Br
Summed up:
as §1

Compound in assay [15]: C1CN(CCC1(CC2=CC=C(C=C2)Cl)N)C3=NC=NC4=C3C=CN4
The gist of the method: as §1

Compound in assay [16]: CC(=O)c1cnc2ccc(-c3cc(Cl)c(O)c(Cl)c3)nc2c1N[C@H]1CC[C@H](CN(C)C)CC1
Summed up:
as §1

Compound in assay [17]: CC1=C(C2=C(C=C1)C(=O)C3=CC=CC=C3N2CCCN)C
The gist of the method: as §1

Compound in assay [18]: C#Cc1cccc(Nc2ncnc3cc(OCCOC)c(OCCOC)cc23)c1 [erlotinib]
Summed up:
as §1

Compound in assay [19]: C1=CC(=CC=C1C2=NC3=C(N2)C=C(C=C3)C(=O)N)OC4=CC=C(C=C4)Cl
Summed up:
as §1

Compound in assay [20]: CC(C)C1=C2N=C(C=C(N2N=C1)NCC3=CC=CC=C3)NCCCCCCN
Summed up:
as §1

Our source for the log2 fold change values is the supplement of paper PMC10849652.

The other results are listed elsewhere or left out. Residues, ends and D or L forms follow the SMILES beside them. *: point of attachment. Cbz = O=C(OCc1ccccc1)*

With FUNDC1 (UniProt Q8IVP5), the log2 fold change in assay [1] was active: 0.597; in assay [2], inactive: -0.023.

Turning to FRAT1 (UniProt Q92837), the log2 fold change was inactive: -0.039 in assay [3], inactive: -0.009 in [4] and inactive: 0.06 in [5].

Turning to GAGE1 (UniProt Q13065), the log2 fold change in [6] was inactive: 0.022.

For the target FZR1 (UniProt Q9UM11), the log2 fold change was inactive: -0.078 in [7] and inactive: 0.196 in assay [8].

Turning to GFOD2 (UniProt Q3B7J2), the log2 fold change in assay [9] was inactive: 0.091; in assay [10], inactive: -0.385.

With GDF15 (UniProt Q99988), the log2 fold change in assay [11] is inactive: -0.055; in assay [12], inactive: 0.109; in [1], inactive: 0.034; in assay [3] it was inactive: -0.019; in [13] it was inactive: -0.098; in assay [14], inactive: -0.351. Further, the log2 fold change in assay [15] was inactive: -0.188; in assay [7], inactive: -0.103; in [2], inactive: 0.005; in [16], inactive: -0.496; in assay [4], inactive: 0.053; in [5], inactive: 0.141. For the same target, the log2 fold change in [8] is inactive: 0.087; in assay [6], inactive: 0.084; in [17], inactive: 0.054.

Regarding GANAB (UniProt Q14697), the log2 fold change is inactive: 0.583 in [14], inactive: -0.037 in assay [15] and inactive: 0.081 in assay [17].

For the target FUT1 (UniProt P19526), the log2 fold change was inactive: -0.121 in [9] and inactive: -0.094 in assay [10].

Take GDPD5 (UniProt Q8WTR4): the log2 fold change in [9] was inactive: -0.02; in [1] it was inactive: -0.342; in assay [7], inactive: 0.024; in [2] it was inactive: 0.276; in [10] it was inactive: -0.158; in assay [8] it was inactive: 0.21.

Consider FRMD8 (UniProt Q9BZ67), for which the log2 fold change in [11] was inactive: 0.061; in assay [9] it was inactive: -0.023; in assay [12], inactive: 0.134; in assay [13], inactive: -0.034; in assay [14] it was inactive: 0.054; in [15], inactive: -0.05. The log2 fold change in [16] was inactive: -0.023; in assay [10], inactive: -0.475; in assay [6], inactive: -0.343; in [17], inactive: -0.042.

For the target FUOM (UniProt A2VDF0), the log2 fold change in [1] is inactive: 0.072; in [14], inactive: 0.037; in assay [15] it was inactive: -0.289; in assay [7] it was inactive: 0.02; in [2] it was inactive: 0.086; in [8] it was inactive: 0.031. Further, the log2 fold change in assay [6] is inactive: 0.018; in [17], inactive: 0.067.

In the case of GANC (UniProt Q8TET4), the log2 fold change in [6] is inactive: -0.141.

Consider FUT10 isoform 2 (UniProt Q6P4F1), for which the log2 fold change in [9] was inactive: -0.006; in assay [10] it was inactive: 0.109.

As for FTSJ1 isoform 2 (UniProt Q9UET6), the log2 fold change is inactive: 0.034 in assay [18], inactive: 0.059 in assay [19] and inactive: 0.045 in assay [20].

FYTTD1 (UniProt Q96QD9): the log2 fold change in [11] was inactive: -0.281; in assay [9] it was inactive: -0.2; in [12], inactive: 0.31; in assay [13], inactive: -0.119; in assay [14], inactive: 0.159; in assay [15], inactive: -0.029. Besides, the log2 fold change in assay [16] was inactive: -0.278; in assay [10] it was inactive: 0.081; in [17], inactive: 0.065.

Take GALNT3 (UniProt Q14435): the log2 fold change in assay [18] is inactive: -0.05; in [19] it was inactive: 0.027; in assay [14] it was inactive: -0.081; in [15], inactive: 0.097; in assay [20], inactive: 0.074; in [17], inactive: -0.027.

On to FXYD5 (UniProt Q96DB9), for which the log2 fold change in assay [11] is inactive: -0.021; in [12], inactive: 0.227; in assay [3] it was inactive: -0.059; in assay [13], inactive: -0.044; in [7] it was inactive: -0.112; in assay [16], inactive: -0.219. For the same target, the log2 fold change in assay [4] is inactive: -0.055; in [5], inactive: 0.101; in assay [8] it was inactive: -0.121.

GALNT7 (UniProt H0YAH3): the log2 fold change in assay [9] was inactive: -0.103; in assay [1], inactive: -0.171; in assay [7] it was inactive: 0.008; in [2], inactive: 0.187; in [10], inactive: -0.029; in assay [8], inactive: -0.064.
